Measured values reported in PubChem BioAssay AID485314 (National Center for Advancing Translational Sciences (NCATS), 2010).
The campaign covered roughly 340,000 compounds. About 4,500 (1.3%) were called active. The inconclusive results got no clear call from the source; some entries with a clear call stand among them for comparison. The call rests on the fitted dose curve; in most records, active means well fitted inhibition curve with a large enough effect; inconclusive means small, poorly fitted or top-dose-only effect, or another doubt; inactive means no such curve, though single readings can be large or run the other way. Potencies beside an inconclusive call are fits to weak or partial responses and may not hold up. Where a structure was tested more than once in an assay, its records may differ in their call.
On the % scale 0 is the no-effect control and ±100 the full control effect; potency means the concentration at half of the fitted maximal effect.

These compounds were tested against DNA polymerase beta (Homo sapiens) (UniProt P06746) (assay: qHTS Assay for Inhibitors of DNA Polymerase Beta). Details: Pol beta primer extension/strand displacement, fluorescence kinetic; activity change, negative = inhibition: at 114 µM (top of the series).
Method in brief: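 10 nM enzyme + cpd, 15 min RT; start with substrate 50 nM final; read 0 min and after 10 min RT. Corrected, normalized data; 4-parameter Hill curve fit.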
For `CN(C)CCCN1C(=O)c2cccc3c(Br)ccc(c23)C1=O`, the Potency was inconclusive: 28.2 µM [inhibitor, full curve, poor fit]. `COc1cccc(CN2CC(O)=C(c3nc(-c4ccc(Cl)cc4)cs3)C2=N)c1` was tested, and the Potency was inconclusive: 5.01 µM [inhibitor, single point]. For `CCOc1nc(NC(=O)NS(=O)(=O)Oc2ccccc2)nc(-c2ccccc2)n1`, the Potency was “inactive”. For `COc1cc(/C=C/c2cc[n+](C)cc2)ccc1OCC(=O)Nc1ccccc1`, the Potency was inconclusive: 8.91 µM [inhibitor, full curve]. In the case of `Cc1ccc(CSc2nc(-c3ccccc3)c(C#N)c(=O)[nH]2)cc1`, the Potency is reported as inconclusive: 79.4 µM [inhibitor, single point]. With `CCOc1ccc(OCC(=O)Nc2nnc3n2CCS3)cc1` the Potency was “inactive”. For `CCn1c(SCC(=O)Nc2sc3c(c2C(N)=O)CCC(C)C3)nnc1-c1ccco1` (stereo not given), the Potency was active: 56.2 µM. For `CC1(C)C(=O)OC(c2ccco2)C(C)(C)C1=O` (stereo not given), the Potency was “inactive”. `Cc1ccccc1OCCCCCNCCO` was tested, and the Potency was “inactive”. In the case of `CN(C(=O)CN1C(=O)CCSc2ccc(S(=O)(=O)N3CCCC3)cc21)c1ccccc1`, the activity change, negative = inhibition is reported as inconclusive: -40.8% [inhibitor]. For `Cc1ccc2nc(Nc3ccc(Cl)cc3)c3nncn3c2c1`, the Potency was inconclusive: 0.141 µM [inhibitor, full curve, poor fit]. For `CN1CCN(c2ncnc3scc(-c4ccccc4Cl)c23)CC1`, the Potency was “inactive”. With `Cc1cc(NC(=O)c2ccccc2F)n(-c2nc3ccccc3[nH]2)n1` the Potency was inconclusive: 39.8 µM [inhibitor, partial curve]. `C=Cc1ccc(CN2C(=O)c3ccccc3Sc3ccc(C(=O)OCc4ccco4)cc32)cc1` was tested, and the Potency was inconclusive: 89.1 µM [inhibitor, single point]. For `Cc1ncoc1C(=O)Nc1cccc(Cl)c1`, the Potency was inconclusive: 20 µM [inhibitor, partial curve, poor fit]. For `CCC(=O)Nc1ccc(NC(=S)NC(=O)/C=C/c2ccccc2)cc1`, the Potency was active: 10 µM. In the case of `CC(/C=N\NC(=O)c1ccc2c(c1)OCO2)c1ccccc1` (stereo not given), the Potency is reported as inconclusive: 15.8 µM [inhibitor, single point]. For `O=C(CCSCCC(=O)NCc1cccs1)NCc1cccs1`, the Potency was inconclusive: 89.1 µM [inhibitor, single point]. For `Oc1ccc(C23CC4CC(CC(C4)C2)C3)cc1O`, the Potency was inconclusive: 0.178 µM [inhibitor, full curve, poor fit]. For `S=c1[nH]nc(-c2cc(-c3ccccc3)n[nH]2)n1/N=C/C=C/c1ccco1`, the Potency was active: 22.4 µM. `CCOc1ccc(N(C)C(=O)CCc2nnc3ccc(N4CCOCC4)nn23)cc1` was tested, and the Potency was “inactive”. With `O=C1C(Cl)=C(N2CCCCCC2)C(=O)N1c1ccc(Br)cc1` the Potency was inconclusive: 0.794 µM [inhibitor, full curve, poor fit]. In the case of `CC(=O)c1ccc(NC(=O)c2cnn3ccccc23)cc1`, the Potency is reported as “inactive”. `COc1ccc(-n2cnnc2)cc1` was tested, and the Potency was “inactive”. In the case of `Cc1c(O)c(CN2CCCC2)cc2c3c(c(=O)oc12)CCC3`, the Potency is reported as inconclusive: 31.6 µM [inhibitor, full curve]. In the case of `Cc1ccc(SCC(=O)N=C2NC(=O)CS2)cc1`, the Potency is reported as inconclusive: 89.1 µM [inhibitor, single point]. In the case of `Cc1c(C(=O)Nc2ccc(C(C)C)cc2)sc2nc[nH]c(=O)c12`, the Potency is reported as “inactive”. For `Cc1ccc(N2NC(=O)/C(=C/c3ccc(-c4ccc(Cl)c(C(=O)O)c4)o3)C2=O)cc1`, the Potency was active: 31.6 µM. `CC(C)c1ccc(NC(=O)CSc2ncccc2C(=O)Oc2cccc([N+](=O)[O-])c2)cc1` was tested, and the Potency was inconclusive: 31.6 µM [inhibitor, single point]. `Cc1ccc(S(=O)(=O)N[C@@H](C)C(=O)N2CCC(C(=O)N3CCC[C@H]3C(=O)O)CC2)cc1` was tested, and the Potency was inconclusive: 25.1 µM [inhibitor, partial curve]. For `COc1ccc(CCCc2n[nH]c(=S)o2)cc1`, the Potency was inconclusive: 100 µM [inhibitor, single point]. In the case of `COc1cc(O)cc2occ(-c3ccc(O)cc3)c(=O)c12`, the Potency is reported as inconclusive: 70.8 µM [inhibitor, single point]. For `Cn1nc(C(F)(F)F)c(/C=N/OC(=O)c2ccccc2Cl)c1SCc1ccc(Cl)cc1`, the Potency was inconclusive: 0.316 µM [inhibitor, full curve, poor fit]. With `O=C(Cc1cccs1)Nc1nc(-c2cccnc2)cs1` the Potency was inconclusive: 14.1 µM [inhibitor, full curve]. For `COc1cc(C(=O)OCC(=O)NC2CCS(=O)(=O)C2)c([N+](=O)[O-])cc1OC` (stereo not given), the Potency was “inactive”. With `CCOc1ccc(C(=O)Nc2cc(-c3cn4cccnc4n3)ccc2C)cc1OCC` the Potency was inconclusive: 17.8 µM [inhibitor, full curve]. For `Cc1cc(C)cc(NC(=O)C2CCC(CNS(=O)(=O)c3ccc4c(c3)C(C)(C)C(=O)N4C)CC2)c1` (stereo not given), the Potency was “inactive”. With `Cc1ccccc1C(=O)N1CCc2cc(-c3nc(NC(=O)Cc4ccc5c(c4)OCO5)sc3C)ccc21` the Potency was active: 0.251 µM. `CCOC(=O)C1CCN(S(=O)(=O)c2ccc(-c3nc4ccccc4s3)s2)CC1` was tested, and the Potency was inconclusive: 22.4 µM [inhibitor, full curve, poor fit]. `COc1ccc(C2C(C(=O)NCC3CCCO3)c3cc(OC)c(OC)cc3C(=O)N2C)cc1OC` (stereo not given) was tested, and the Potency was inconclusive: 39.8 µM [inhibitor, single point]. For `COc1ccc(NS(=O)(=O)c2ccc(Cl)c(NC(=O)c3cccnc3Cl)c2)cc1`, the Potency was inconclusive: 28.2 µM [inhibitor, single point]. In the case of `CN(Cc1ccccc1)C(=O)C1CCN(S(=O)(=O)c2ccc3nc4c(c(C(=O)O)c3c2)CCCC4)CC1`, the Potency is reported as active: 28.2 µM. For `O=C(Nc1ccc(Cl)cc1)c1cc(S(=O)(=O)N2CCc3ccccc32)ccc1F`, the Potency was inconclusive: 79.4 µM [inhibitor, single point]. `O=c1c(C=NCc2cccnc2)c(C(F)(F)F)[nH]n1-c1nc2ccccc2s1` was tested, and the Potency was inconclusive: 89.1 µM [inhibitor, single point]. In the case of `Cc1ccc(S(=O)(=O)C(C#N)c2nc3ccccc3nc2N2CCN(C)CC2)cc1` (stereo not given), the Potency is reported as “inactive”. For `COc1ccc(C(=O)Nc2ccccc2C(=O)Nc2ccncc2)cc1`, the Potency was inconclusive: 39.8 µM [inhibitor, single point]. For `COc1ccc(C2C(C#N)=C(N)Oc3cc(C)n(Cc4ccco4)c(=O)c32)cc1` (stereo not given), the Potency was inconclusive: 56.2 µM [inhibitor, partial curve]. For `Cc1cc(C)n(CCc2nc(-c3ccc(C)o3)cs2)n1`, the Potency was active: 50.1 µM. In the case of `O=c1[nH]c2cc(Cl)ccc2c(O)c1-c1ccc(Oc2ccccc2)cc1`, the Potency is reported as inconclusive: 28.2 µM [inhibitor, single point]. In the case of `COc1ccc(C(=O)CCC(=O)Nc2ccc(OC)c(Cl)c2)cc1`, the Potency is reported as inconclusive: 25.1 µM [inhibitor, full curve]. With `Cc1ccc(S(=O)(=O)NN2C(=O)/C(=C/c3cccc(F)c3)SC2=S)cc1` the Potency was “inactive”. For `CNS(=O)(=O)c1ccc2nc(NC(=O)/C=C/c3ccco3)sc2c1`, the Potency was inconclusive: 39.8 µM [inhibitor, partial curve]. `Cc1ccc(/C=C/C(=O)Nc2sc3c(c2C#N)CCCC3)o1` was tested, and the Potency was inconclusive: 15.8 µM [inhibitor, full curve]. With `COc1ccc(N=C2S/C(=C\c3ccco3)C(=O)N2CC(C)C)cc1` the Potency was active: 79.4 µM. With `O=S(=O)(NCc1ccco1)c1ccccc1Br` the Potency was inconclusive: 89.1 µM [inhibitor, single point]. For `COc1ccc(CCNC(=O)C2CCN(C(=O)c3ccc(Cl)cc3)CC2)cc1`, the Potency was inconclusive: 15.8 µM [inhibitor, partial curve, poor fit]. `CCC1=[N+](C)c2cccc3cccc(c23)N1C` was tested, and the Potency was inconclusive: 39.8 µM [inhibitor, single point]. With `CC(=O)C1=C(O)C(=O)N(Cc2cccnc2)C1c1ccccc1Cl` (stereo not given) the Potency was inconclusive: 2.51 µM [inhibitor, full curve]. In the case of `Oc1ccc(/C=N/Nc2ncnc3nc[nH]c23)cc1`, the activity change, negative = inhibition is reported as inconclusive: -35.7% [inhibitor]. `Oc1ccc(/C=N/n2c(-c3ccccc3)n[nH]c2=S)cc1` was tested, and the Potency was “inactive”. For `COc1ccc(C(=O)Nc2ccccc2C(=O)N/N=C/c2ccco2)cc1`, the Potency was inconclusive: 79.4 µM [inhibitor, single point]. With `CC1Sc2ccc(C(=O)O)cc2NC1=O` (stereo not given) the Potency was inconclusive: 100 µM [inhibitor, single point]. In the case of `N#CCn1cnc2c(oc3ccccc32)c1=O`, the activity change, negative = inhibition is reported as inconclusive: -32.1% [inhibitor]. In the case of `COc1ccc(N(Cc2cccs2)C(=O)COc2ccc(C(C)C)cc2)cc1`, the Potency is reported as inconclusive: 89.1 µM [inhibitor, single point]. In the case of `Cc1noc(C)c1C(=O)NC(C)C1CCCO1` (stereo not given), the Potency is reported as inconclusive: 100 µM [inhibitor, partial curve]. `COc1ccc2nc3sc(C(=O)NCCCN4CCc5ccccc5C4)cc3cc2c1` was tested, and the Potency was inconclusive: 89.1 µM [inhibitor, single point]. For `Cc1ccc(S(=O)(=O)c2nc(-c3ccco3)oc2SCC(C)C)cc1`, the Potency was “inactive”. For `COc1cc(OC)c(NC(=O)Cn2cnc3sc(C)c(S(=O)(=O)N4CCN(C)CC4)c3c2=O)cc1Cl`, the Potency was “inactive”. With `Cc1c(NC(=O)COC(=O)c2cc(-c3ccc(-c4ccccc4)cc3)nc3ccccc23)c(=O)n(-c2ccccc2)n1C` the Potency was inconclusive: 100 µM [inhibitor, single point]. `CCN(CC)S(=O)(=O)c1ccc(S(=O)(=O)Nc2ccc(C(=O)N3CCCC3)cc2)cc1` was tested, and the Potency was inconclusive: 89.1 µM [inhibitor, single point].
